Results are given in words; binding and its absence hold for the method and conditions named. For some of these results: In cells and extracts the contact can be indirect. Some entries that bind do so weakly or less than the wild type. Each block holds one molecule with its values, some of them ahead of it.
Columns and labels:
[1] = target: T1, isocitrate dehydrogenase (IDH) subunit IDH1 (Arabidopsis thaliana) (UniProt Q8LFC0); assay: split reporter; split luciferase (split-LUC) in transfected Arabidopsis mesophyll protoplasts, 96-well plate, ViviRen substrate, relative luminescence; positive: top 10% of scores (3.7)
T1 sequence: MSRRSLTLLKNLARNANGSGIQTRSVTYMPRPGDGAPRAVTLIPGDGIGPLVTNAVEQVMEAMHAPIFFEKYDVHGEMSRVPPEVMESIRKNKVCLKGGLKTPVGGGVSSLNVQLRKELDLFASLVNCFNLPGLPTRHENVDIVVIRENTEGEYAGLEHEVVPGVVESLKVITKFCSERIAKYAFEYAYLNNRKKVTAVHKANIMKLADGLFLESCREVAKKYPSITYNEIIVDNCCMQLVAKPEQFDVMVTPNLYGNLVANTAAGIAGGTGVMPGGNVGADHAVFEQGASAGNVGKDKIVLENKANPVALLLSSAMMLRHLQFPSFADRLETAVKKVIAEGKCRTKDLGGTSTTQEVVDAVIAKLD

Chains of the proteins cited; added tags and fusions are not shown. Lines headed by an entry give the natural chain unless they say otherwise; changes in a name come on top.
UniProt P93033: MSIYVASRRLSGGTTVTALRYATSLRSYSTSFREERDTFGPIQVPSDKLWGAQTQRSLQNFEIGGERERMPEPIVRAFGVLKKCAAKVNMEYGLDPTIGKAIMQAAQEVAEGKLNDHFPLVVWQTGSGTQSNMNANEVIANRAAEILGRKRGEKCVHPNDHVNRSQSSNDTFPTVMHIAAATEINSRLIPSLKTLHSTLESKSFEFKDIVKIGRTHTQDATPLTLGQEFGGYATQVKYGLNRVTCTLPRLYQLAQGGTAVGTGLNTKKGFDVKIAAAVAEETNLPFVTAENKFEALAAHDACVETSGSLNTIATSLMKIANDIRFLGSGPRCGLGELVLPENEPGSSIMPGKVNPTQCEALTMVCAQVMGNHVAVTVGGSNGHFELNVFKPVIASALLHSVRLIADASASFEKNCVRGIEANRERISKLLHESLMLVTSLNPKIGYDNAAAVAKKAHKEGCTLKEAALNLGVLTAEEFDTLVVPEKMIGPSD
UniProt O82663: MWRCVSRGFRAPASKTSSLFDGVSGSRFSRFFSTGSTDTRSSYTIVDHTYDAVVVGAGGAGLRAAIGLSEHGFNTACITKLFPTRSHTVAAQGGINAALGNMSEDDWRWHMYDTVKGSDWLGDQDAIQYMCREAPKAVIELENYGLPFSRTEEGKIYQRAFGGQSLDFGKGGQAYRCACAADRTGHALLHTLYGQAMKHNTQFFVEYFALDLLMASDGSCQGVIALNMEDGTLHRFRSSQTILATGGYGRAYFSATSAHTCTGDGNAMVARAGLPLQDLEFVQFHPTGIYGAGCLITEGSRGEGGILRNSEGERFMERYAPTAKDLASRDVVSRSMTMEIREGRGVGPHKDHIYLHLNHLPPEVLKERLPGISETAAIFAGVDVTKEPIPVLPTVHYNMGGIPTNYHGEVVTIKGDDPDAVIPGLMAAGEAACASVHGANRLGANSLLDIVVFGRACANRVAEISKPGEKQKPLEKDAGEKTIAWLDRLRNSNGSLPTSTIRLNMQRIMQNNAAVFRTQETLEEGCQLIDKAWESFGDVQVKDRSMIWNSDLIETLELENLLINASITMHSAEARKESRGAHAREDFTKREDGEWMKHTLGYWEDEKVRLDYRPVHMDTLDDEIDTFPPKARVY

[2] = target: T1, isocitrate dehydrogenase (IDH) subunit IDH1 (Arabidopsis thaliana); assay: two-hybrid; yeast two-hybrid, mating of AH109 and Y187, plates without Leu, Trp and His with 3-aminotriazole; colonies scored at 3, 5 and 8 days, positive: colonies at 3 or 5 days
[3] = target: T2, succinate dehydrogenase (SDH) subunit SDH2-3 (Arabidopsis thaliana) (UniProt Q9FJP9); assay: split reporter; split luciferase (split-LUC) in transfected Arabidopsis mesophyll protoplasts, 96-well plate, ViviRen substrate, relative luminescence; positive: top 10% of scores (3.7)
T2 sequence: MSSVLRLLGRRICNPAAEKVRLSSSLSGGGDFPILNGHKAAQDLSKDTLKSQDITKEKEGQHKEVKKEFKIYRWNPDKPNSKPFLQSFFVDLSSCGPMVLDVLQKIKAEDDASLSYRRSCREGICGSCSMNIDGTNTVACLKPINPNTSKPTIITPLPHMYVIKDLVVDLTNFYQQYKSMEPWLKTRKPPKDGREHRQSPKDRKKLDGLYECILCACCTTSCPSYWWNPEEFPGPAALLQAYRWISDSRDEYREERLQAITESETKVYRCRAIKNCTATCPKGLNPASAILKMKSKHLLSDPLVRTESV

[4] = target: T2, succinate dehydrogenase (SDH) subunit SDH2-3 (Arabidopsis thaliana); assay: two-hybrid; yeast two-hybrid, mating of AH109 and Y187, plates without Leu, Trp and His with 3-aminotriazole; colonies scored at 3, 5 and 8 days, positive: colonies at 3 or 5 days
[5] = target: T3, IDH1-VYNE (Arabidopsis thaliana) (UniProt Q8LFC0); assay: split reporter; BiFC: SCYCE- and VYNE-tagged proteins transiently expressed in Arabidopsis mesophyll protoplasts, confocal microscopy with MitoTracker orange
T3 sequence: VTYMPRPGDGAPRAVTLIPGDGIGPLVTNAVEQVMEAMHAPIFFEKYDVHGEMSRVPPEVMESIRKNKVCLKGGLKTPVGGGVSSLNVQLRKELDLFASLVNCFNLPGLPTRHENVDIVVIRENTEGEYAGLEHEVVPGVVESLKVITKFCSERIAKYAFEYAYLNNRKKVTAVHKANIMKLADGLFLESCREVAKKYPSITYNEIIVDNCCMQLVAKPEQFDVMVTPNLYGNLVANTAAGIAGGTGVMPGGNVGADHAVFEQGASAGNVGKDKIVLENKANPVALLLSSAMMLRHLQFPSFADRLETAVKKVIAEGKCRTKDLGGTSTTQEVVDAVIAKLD

[6] = target: T4, isocitrate dehydrogenase (IDH) subunit IDH5 (Arabidopsis thaliana) (UniProt Q945K7); assay: split reporter; split luciferase (split-LUC) in transfected Arabidopsis mesophyll protoplasts, 96-well plate, ViviRen substrate, relative luminescence; positive: top 10% of scores (3.7)
T4 sequence: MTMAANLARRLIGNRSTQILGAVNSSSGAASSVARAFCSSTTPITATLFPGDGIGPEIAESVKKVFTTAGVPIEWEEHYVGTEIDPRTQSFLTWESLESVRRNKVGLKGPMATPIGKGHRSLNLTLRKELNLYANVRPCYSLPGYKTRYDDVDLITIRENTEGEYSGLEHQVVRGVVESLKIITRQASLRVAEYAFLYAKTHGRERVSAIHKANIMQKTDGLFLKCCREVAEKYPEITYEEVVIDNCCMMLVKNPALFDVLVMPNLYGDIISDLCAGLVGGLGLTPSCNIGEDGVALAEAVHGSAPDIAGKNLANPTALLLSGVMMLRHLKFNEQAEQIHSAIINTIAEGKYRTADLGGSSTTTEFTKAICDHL

[7] = target: T4, isocitrate dehydrogenase (IDH) subunit IDH5 (Arabidopsis thaliana); assay: two-hybrid; yeast two-hybrid, mating of AH109 and Y187, plates without Leu, Trp and His with 3-aminotriazole; colonies scored at 3, 5 and 8 days, positive: colonies at 3 or 5 days

Molecule: fumarase (FUM) 1 (from UniProt P93033 1-492) (enzyme)
- binding [1]: no binding
- binding [2]: no binding

Molecule: FUM1-SCYCE (from UniProt P93033 29-492) (enzyme)
- binding [5]: no binding

The next lines start with the values.

- binding [3]: binds
- binding [4]: binds
Molecule: succinate dehydrogenase (SDH) subunit SDH1-1 (from UniProt O82663 1-634) (enzyme)

- binding [6]: binds
- binding [7]: binds
B1: isocitrate dehydrogenase (IDH) subunit IDH2 (protein, UniProt P93032 1-367)
chain: MSRQSFSLLKNLRSIASGSKIQTRSVTYMPRPGDGKPRPVTLIPGDGVGPLVTNAVQQVMEAMHAPVYFEPFEVHGDMKSLPEGLLESIKKNKVCLKGGLKTPVGGGVSSLNVNLRKELDLFASLVNCFNLPGLASRHENVDIVVIRENTEGEYAGLEHEVVPGVVESLKVITKFCSERIAKYAFEYAYLNNRKKVTAVHKANIMKLADGLFLESCQEVAKKYPSIAYNEIIVDNCCMQLVARPEQFDVMVTPNLYGNLVANTAAGIAGGTGVMPGGNVGAEYAVFEQGASAGNVGKDTTEEQKNANPVALLLSSAMMLRHLQFPSFADRLETAVKRVIAEGNCRTEDLGGNSTTQEVVDAVIANLD
